# Reference: paper PMC12431657, “Discovery and mechanistic insights of dibenzoylmethane as a broad spectrum inhibitor of coronavirus” (PLOS Pathogens, 2025)
# This list holds what a sample rich in strong results left over.
# Legend:
# [1] = system: HCoV-229E; parameters: species or system Huh-7; HTS, protection from HCoV-229E induced cell death, luminescent cell viability (CellCounting-Lite 2.0), inhibition rate; conditions: 24 h post infection, 1 h compound pre-incubation; 10 µM; inhibitor
# [2] = system: HCoV-OC43; parameters: species or system RD; HTS, protection from HCoV-OC43 induced cell death, luminescent cell viability (CellCounting-Lite 2.0), inhibition rate; conditions: 24 h post infection, 1 h compound pre-incubation; 10 µM; inhibitor
smiles,measurement,setting,value
Clc1ccc2c(c1)CCc1cccnc1C2=C1CCNCC1 [Desloratadine],229E Inhibition rate,[1],30.1%
same,OC43 Inhibition rate,[2],29.2%
